Results reported in patent US6924313B1.

By UniProt entry, the sequences of proteins in these tests, tags left out. Residues count along the entry.
UniProt P11597, 18-493 limits assumed: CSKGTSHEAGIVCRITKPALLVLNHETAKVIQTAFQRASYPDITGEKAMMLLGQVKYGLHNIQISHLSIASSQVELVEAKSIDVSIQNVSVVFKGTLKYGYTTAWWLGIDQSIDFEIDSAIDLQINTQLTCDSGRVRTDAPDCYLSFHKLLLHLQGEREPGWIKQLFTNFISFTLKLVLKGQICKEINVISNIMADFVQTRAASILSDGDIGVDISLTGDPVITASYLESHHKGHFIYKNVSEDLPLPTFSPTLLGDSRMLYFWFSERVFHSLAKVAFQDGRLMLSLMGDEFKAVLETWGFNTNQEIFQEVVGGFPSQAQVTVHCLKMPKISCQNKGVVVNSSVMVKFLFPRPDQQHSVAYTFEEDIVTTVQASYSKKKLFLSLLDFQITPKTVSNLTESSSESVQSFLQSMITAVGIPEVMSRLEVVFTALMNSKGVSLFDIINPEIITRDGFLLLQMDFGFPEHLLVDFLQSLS

Biological target: CETP (Homo sapiens, UniProt P11597)
Assay: CETP activity in vitro ([3H]CE transfer from HDL to LDL)
Details: read-out: CEPT Activity Assay IC50

OC(CN(Cc1cccc(C(F)(F)F)c1)c1cccc(F)c1)C(F)(F)F (stereo not shown)
IC50: 14.2 µM and 37.5 µM

The source holds more than one record for some entries. This list holds those alone. An entry can have further records. Results that share an entry seem to repeat one measurement (runs, samples, wells or individuals).
